The record followed here is PMC2077835 (Drug metabolism and disposition: the biological fate of …, 2006).

Format in all cases: biochemical
Series [1] concerns the target T1, recombinant CYP4F3B (Homo sapiens, UniProt Q08477).
T1 sequence (Q08477 1-520 isoform Q08477-2): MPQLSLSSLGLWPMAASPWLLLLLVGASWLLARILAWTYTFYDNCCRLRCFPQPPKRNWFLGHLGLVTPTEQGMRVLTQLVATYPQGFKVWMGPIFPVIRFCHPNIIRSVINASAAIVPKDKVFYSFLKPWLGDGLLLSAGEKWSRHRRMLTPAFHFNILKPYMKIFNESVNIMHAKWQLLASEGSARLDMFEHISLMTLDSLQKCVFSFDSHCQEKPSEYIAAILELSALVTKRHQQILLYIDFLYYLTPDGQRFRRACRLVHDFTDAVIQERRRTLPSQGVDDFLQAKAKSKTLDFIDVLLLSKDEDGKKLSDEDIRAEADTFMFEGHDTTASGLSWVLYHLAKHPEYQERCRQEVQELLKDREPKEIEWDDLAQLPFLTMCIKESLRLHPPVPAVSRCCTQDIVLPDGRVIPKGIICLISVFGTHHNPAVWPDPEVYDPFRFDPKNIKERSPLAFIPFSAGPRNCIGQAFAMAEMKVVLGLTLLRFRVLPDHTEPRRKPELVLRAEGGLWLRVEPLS
Nature of the series: Chemical inhibition of M1 formation by recombinant CYP4F3B. The note with it: inhibitor >1 μM; 10 pmol/ml P450, 3 μM DB289.

For series [2], the target named is T2, recombinant CYP4F2 (Homo sapiens, UniProt P78329).
T2 sequence (P78329 5-520): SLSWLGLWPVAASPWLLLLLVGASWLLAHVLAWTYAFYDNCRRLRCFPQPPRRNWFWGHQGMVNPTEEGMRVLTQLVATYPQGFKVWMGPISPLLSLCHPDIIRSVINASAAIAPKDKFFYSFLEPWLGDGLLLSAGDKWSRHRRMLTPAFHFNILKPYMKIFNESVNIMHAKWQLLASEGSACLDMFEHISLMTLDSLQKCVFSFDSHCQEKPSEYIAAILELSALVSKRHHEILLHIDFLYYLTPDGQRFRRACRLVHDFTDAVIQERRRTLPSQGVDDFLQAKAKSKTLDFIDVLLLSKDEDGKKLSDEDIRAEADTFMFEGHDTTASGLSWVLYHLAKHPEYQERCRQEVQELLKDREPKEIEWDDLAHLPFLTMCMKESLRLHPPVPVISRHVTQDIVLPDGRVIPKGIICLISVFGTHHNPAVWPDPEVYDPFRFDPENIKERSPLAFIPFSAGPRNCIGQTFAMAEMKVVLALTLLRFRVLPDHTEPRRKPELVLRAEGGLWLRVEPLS
Nature of the series: Chemical inhibition of M1 formation by recombinant CYP4F2. The note with it: inhibitor >1 μM; 10 pmol/ml P450, 3 μM DB289.

For series [3], the system named is M1 formation by human liver microsomes. As to the kind of experiment: Chemical inhibition of M1 formation by HLMs. As to conditions: 0.2 mg/ml HLM, 3 μM DB289.
Series [4] has as its target T3, CYP2J2 (Homo sapiens, UniProt P51589).
T3 sequence (P51589 1-502): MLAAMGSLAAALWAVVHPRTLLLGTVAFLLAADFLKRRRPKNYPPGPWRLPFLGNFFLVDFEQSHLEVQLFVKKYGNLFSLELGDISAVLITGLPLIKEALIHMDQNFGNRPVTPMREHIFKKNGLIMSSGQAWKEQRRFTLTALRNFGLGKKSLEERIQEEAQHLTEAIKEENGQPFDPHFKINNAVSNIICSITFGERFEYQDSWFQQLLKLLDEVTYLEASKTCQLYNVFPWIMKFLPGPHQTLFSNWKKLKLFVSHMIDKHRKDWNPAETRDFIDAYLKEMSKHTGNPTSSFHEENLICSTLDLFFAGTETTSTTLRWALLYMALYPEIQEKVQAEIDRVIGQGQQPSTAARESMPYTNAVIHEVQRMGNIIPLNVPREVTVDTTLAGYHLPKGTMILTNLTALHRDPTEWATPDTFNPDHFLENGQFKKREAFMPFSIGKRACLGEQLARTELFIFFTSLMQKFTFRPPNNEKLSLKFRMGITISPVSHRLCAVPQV
As to the kind of experiment: Chemical inhibition of M1 formation by recombinant CYP2J2. As to conditions: 1 μM inhibitor; 10 pmol/ml P450, 3 μM DB289.

Turning to `CC(C)(C)c1ccc(C(=O)CCCN2CCC(OC(c3ccccc3)c3ccccc3)CC2)cc1` [ebastine], the “inhibition of M1 formation” value in series [1] is recorded as “partially inhibiting”; in series [2], “partially inhibiting”; in series [3] (1 μM inhibitor, Fig. 7A), “did not inhibit”; in series [3] (inhibitor up to 10 μM), “marginally inhibited”. The “inhibition of M1 formation, selectivity among CYP2J2, CYP4F2, CYP4F3B” value in series [4] was “selective inhibitor of CYP2J2”.
